# Data reported in the supplement of paper PMC12067093, “Discovery and optimisation of a covalent ligand for TRIM25 and its application to targeted protein ubiquitination” (Chemical Science, 2025).
# Chains of the proteins cited; added tags and fusions are not shown. Lines headed by an entry give the natural chain unless they say otherwise; changes in a name come on top.
# UniProt Q10567: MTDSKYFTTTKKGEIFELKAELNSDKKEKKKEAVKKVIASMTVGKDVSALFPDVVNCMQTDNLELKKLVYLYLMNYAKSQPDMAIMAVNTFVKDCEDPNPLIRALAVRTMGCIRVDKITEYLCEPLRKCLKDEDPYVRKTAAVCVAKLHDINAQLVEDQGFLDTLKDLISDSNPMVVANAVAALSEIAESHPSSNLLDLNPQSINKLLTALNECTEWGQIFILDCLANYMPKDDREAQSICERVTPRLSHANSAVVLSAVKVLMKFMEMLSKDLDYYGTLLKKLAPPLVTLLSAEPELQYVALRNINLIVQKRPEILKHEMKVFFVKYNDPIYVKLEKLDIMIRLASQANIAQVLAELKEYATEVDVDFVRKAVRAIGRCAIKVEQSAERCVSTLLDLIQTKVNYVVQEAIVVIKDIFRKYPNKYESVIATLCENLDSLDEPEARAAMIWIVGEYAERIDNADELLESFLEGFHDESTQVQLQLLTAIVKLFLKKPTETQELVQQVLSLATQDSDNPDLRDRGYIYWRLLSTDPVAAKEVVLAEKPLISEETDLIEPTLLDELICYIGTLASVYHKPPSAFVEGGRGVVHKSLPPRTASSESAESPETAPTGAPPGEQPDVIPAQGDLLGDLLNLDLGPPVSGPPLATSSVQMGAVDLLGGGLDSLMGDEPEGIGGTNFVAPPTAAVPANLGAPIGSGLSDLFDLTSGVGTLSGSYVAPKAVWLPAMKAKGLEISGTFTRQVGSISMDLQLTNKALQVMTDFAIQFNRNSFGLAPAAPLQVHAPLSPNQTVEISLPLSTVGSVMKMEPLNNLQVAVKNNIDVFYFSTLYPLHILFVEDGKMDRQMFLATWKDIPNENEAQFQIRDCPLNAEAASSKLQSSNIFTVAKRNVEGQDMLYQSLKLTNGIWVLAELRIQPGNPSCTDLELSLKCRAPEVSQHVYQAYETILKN
# UniProt Q96GX9: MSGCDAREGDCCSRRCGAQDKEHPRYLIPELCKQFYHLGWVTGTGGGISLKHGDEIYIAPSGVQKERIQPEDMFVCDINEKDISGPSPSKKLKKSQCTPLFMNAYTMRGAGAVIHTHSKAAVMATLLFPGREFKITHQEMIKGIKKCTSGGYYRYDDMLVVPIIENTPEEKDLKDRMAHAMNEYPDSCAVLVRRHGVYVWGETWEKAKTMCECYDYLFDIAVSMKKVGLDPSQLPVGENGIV
# UniProt O95782: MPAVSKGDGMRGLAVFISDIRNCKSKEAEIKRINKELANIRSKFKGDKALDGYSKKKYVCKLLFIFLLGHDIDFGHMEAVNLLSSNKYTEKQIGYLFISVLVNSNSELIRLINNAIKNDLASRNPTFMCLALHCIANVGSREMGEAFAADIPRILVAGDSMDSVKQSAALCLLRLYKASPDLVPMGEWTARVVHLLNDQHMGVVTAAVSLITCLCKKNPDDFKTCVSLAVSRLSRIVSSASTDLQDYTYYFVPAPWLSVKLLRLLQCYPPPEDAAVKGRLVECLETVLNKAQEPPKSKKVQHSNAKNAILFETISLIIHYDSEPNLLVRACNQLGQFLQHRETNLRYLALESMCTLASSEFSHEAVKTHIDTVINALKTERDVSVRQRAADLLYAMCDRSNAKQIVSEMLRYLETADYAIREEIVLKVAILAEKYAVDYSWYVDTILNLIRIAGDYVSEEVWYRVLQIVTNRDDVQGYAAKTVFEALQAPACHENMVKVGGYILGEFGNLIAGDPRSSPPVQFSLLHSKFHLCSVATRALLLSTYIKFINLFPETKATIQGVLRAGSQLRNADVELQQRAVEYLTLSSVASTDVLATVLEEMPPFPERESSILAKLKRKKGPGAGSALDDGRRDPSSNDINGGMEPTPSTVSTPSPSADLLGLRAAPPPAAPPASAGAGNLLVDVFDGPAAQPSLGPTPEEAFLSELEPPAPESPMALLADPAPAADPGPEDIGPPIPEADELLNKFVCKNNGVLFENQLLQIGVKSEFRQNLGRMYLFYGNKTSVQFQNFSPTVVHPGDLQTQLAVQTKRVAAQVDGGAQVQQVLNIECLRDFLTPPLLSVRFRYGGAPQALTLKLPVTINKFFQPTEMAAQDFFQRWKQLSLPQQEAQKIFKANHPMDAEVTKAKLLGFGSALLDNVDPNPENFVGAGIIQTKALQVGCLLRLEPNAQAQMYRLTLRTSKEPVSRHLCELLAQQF
# UniProt Q53RE8: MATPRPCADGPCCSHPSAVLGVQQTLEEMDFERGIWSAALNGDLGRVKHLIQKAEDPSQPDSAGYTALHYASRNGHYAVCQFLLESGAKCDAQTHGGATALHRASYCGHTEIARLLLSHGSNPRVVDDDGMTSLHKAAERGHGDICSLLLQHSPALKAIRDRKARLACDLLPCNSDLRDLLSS
# UniProt Q9BXS5: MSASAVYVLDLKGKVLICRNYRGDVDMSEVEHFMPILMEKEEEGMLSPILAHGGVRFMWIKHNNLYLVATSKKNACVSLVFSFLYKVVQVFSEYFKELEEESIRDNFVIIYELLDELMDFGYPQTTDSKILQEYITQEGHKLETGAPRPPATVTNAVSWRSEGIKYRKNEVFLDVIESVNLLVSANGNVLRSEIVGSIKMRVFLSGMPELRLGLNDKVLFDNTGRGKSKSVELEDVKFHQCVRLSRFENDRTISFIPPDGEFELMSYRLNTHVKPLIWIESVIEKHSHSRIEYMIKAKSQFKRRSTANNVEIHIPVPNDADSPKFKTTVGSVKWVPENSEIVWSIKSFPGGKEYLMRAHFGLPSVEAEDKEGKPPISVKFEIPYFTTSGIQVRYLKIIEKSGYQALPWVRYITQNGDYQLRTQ
# UniProt Q8N8A2: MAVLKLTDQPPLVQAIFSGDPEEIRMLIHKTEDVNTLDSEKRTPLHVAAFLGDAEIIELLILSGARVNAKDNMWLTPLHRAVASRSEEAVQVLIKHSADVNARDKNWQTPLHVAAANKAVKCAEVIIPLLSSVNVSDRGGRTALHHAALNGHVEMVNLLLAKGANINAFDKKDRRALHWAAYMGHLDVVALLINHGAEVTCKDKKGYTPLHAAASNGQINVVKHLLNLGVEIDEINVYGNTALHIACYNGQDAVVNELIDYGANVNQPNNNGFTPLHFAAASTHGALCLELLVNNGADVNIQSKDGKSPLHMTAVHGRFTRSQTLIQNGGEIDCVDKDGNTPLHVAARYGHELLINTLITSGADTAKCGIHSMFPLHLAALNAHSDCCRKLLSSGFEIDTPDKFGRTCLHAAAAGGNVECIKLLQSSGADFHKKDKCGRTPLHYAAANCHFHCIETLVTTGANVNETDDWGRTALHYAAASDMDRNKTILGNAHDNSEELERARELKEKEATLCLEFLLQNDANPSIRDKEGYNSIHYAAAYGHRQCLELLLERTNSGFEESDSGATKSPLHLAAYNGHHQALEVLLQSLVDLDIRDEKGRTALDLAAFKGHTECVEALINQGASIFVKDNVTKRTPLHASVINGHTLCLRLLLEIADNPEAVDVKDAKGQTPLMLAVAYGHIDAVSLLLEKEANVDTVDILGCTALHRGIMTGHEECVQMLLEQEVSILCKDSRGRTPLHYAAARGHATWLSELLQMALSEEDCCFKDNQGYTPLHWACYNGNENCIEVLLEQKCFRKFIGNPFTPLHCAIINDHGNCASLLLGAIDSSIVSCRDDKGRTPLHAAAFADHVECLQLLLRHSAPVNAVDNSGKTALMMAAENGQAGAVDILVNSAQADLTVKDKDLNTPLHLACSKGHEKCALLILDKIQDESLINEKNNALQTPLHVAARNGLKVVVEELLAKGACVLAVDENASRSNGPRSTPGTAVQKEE
# UniProt P19801: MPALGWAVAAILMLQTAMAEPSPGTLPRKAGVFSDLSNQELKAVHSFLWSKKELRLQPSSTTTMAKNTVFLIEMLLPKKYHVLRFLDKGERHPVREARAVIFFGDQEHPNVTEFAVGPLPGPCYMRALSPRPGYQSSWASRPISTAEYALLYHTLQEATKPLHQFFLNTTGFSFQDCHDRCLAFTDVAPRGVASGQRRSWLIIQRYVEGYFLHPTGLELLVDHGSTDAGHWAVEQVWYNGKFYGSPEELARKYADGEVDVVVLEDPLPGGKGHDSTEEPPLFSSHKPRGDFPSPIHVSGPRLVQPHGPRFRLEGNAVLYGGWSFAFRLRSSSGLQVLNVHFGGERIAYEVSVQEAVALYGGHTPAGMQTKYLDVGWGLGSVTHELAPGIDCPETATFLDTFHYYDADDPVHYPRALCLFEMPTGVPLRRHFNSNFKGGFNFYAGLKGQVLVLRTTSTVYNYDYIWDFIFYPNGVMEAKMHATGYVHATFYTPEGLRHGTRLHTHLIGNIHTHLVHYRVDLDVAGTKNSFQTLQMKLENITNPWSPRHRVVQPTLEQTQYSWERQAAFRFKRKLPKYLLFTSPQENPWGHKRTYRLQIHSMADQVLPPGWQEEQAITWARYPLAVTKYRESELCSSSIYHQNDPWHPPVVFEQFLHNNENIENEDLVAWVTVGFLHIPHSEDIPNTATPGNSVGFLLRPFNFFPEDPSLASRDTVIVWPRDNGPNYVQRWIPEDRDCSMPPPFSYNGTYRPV
# UniProt Q9Y2T2: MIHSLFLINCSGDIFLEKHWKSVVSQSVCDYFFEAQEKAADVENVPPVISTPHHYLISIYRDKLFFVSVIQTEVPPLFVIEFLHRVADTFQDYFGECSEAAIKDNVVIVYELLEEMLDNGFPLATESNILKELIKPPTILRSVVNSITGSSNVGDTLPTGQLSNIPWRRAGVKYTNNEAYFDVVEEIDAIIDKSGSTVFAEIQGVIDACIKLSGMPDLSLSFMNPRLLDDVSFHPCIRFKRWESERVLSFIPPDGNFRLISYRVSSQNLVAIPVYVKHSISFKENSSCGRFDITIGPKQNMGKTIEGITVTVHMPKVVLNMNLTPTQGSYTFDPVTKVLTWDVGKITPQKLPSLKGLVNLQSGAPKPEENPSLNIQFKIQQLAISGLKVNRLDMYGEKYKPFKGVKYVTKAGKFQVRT
# UniProt O14727: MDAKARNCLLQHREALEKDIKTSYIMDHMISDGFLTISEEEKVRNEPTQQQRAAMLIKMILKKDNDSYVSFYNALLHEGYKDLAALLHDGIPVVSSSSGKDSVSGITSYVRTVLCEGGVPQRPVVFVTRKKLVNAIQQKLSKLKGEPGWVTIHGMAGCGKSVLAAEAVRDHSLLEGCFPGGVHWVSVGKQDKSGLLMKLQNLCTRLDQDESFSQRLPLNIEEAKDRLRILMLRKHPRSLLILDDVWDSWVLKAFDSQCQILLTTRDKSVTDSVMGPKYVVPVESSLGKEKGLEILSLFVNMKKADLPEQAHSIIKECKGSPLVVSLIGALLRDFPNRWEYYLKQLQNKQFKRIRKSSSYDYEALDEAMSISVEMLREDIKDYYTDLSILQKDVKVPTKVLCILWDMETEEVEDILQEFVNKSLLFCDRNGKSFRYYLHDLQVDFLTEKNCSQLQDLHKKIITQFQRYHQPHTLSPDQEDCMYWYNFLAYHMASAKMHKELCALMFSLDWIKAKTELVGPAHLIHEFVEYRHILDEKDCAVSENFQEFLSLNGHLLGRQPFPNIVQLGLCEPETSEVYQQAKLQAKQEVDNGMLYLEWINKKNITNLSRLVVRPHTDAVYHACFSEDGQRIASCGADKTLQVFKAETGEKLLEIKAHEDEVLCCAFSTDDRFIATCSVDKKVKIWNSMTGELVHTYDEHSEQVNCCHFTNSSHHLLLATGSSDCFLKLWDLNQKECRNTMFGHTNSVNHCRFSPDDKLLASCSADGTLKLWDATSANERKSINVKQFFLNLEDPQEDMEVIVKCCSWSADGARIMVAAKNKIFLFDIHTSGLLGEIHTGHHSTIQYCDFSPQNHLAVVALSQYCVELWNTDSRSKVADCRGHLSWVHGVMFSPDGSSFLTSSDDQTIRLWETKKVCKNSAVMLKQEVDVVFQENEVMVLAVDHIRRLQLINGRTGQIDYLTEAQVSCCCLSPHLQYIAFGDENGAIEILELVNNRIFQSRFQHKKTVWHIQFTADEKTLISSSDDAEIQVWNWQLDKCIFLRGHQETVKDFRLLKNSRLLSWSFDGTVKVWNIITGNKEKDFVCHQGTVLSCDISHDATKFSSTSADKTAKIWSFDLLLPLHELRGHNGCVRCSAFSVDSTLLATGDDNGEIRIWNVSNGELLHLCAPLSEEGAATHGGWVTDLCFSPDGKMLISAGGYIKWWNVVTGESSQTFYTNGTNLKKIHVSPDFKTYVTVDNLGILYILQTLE
# The other results are listed elsewhere or left out.
# Compound: CC1Cc2ccccc2N1C(=O)C1CCCN(C1)C(=O)CCl (mixture of isomers) [TRIM25 ligand 11 (diastereomer mixture)]
# Assay: probe-labelled cysteine peptide fold change vs DMSO (competition) (log2 fold change); higher = less target engagement (more negative = stronger competition)
# Conditions: 10 µM; THP-1; incubation time: 4 h
# 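Note: competitive chemoproteomic profiling in live THP-1 cells with an iodoacetamide desthiobiotin (IA-DTB) probe, comparing probe-labelled peptide intensities in compound-treated cells against DMSO-treated controls.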
row,Target,probe-labelled cysteine peptide fold change
1,AP1B1_Q10567_930_CRAPEVSQHVYQAYETILK (UniProt Q10567),0.0204
2,APIP_Q96GX9_188_MAHAMNEYPDSCAVLVR (UniProt Q96GX9),0.106
3,APEH_P13798_312_LSPDQCR (UniProt P13798),0.00256
4,ANXA6_P08133_59_QEVCQSYK (UniProt P08133),-0.0813
5,APC_P25054_661_ENNCLQTLLQHLK (UniProt P25054),0.0836
6,AP1B1_Q10567_57_DVSALFPDVVNCMQTDNLELK (UniProt Q10567),0.215
7,AP2A1_O95782_225_TCVSLAVSR (UniProt O95782),0.135
8,ANKRD39_Q53RE8_107_ASYCGHTEIAR (UniProt Q53RE8),0.114
9,AP1M1_Q9BXS5_241_FHQCVR (UniProt Q9BXS5),0.375
10,ANKRD44_Q8N8A2_615_GHTECVEALINQGASIFVK (UniProt Q8N8A2),-0.0146
11,AOC1_P19801_417_ALCLFEMPTGVPLRR (UniProt P19801),-0.159
12,ANKRD44_Q8N8A2_921_CALLILDK (UniProt Q8N8A2),-0.157
13,ANKRD50_Q9ULJ7_113_QALAFHFCK (UniProt Q9ULJ7),0.472
14,ANKFY1_Q9P2R3_389_TPLHVSIMAGNEYVFSQLLQCK (UniProt Q9P2R3),-0.0874
15,AP4B1_Q9Y6B7_534_ILCSPK (UniProt Q9Y6B7),0.0761
16,AP3M1_Q9Y2T2_10_MIHSLFLINCSGDIFLEK (UniProt Q9Y2T2),0.115
17,APAF1_O14727_662+663_AHEDEVLCCAFSTDDR (UniProt O14727),0.223

# Part of the list above, set out differently.
row	Target	probe-labelled cysteine peptide fold change
1	AP1B1_Q10567_930_CRAPEVSQHVYQAYETILK (UniProt Q10567)	0.0204
2	APIP_Q96GX9_188_MAHAMNEYPDSCAVLVR (UniProt Q96GX9)	0.106
